The record followed here is paper PMC5909267.

Sequences of proteins named here, by UniProt entry; tags and fusion partners are left off.
UniProt P63159: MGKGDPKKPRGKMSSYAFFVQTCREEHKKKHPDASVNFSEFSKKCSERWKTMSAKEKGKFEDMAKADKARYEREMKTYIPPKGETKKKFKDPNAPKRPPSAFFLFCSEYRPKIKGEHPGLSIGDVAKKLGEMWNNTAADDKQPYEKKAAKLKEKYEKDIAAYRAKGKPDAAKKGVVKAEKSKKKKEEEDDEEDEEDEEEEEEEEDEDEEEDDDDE

Results are given in words; binding and its absence hold for the method and conditions named. Binding seen in cells or lysates may run through a third protein. Some binding calls cover weakened binding; strength is not graded here.

The target in the experiment is T1, Sirtuin1 (SIRT1) (rat (endogenous in Sprague-Dawley rat brain cortex)).
T1 sequence: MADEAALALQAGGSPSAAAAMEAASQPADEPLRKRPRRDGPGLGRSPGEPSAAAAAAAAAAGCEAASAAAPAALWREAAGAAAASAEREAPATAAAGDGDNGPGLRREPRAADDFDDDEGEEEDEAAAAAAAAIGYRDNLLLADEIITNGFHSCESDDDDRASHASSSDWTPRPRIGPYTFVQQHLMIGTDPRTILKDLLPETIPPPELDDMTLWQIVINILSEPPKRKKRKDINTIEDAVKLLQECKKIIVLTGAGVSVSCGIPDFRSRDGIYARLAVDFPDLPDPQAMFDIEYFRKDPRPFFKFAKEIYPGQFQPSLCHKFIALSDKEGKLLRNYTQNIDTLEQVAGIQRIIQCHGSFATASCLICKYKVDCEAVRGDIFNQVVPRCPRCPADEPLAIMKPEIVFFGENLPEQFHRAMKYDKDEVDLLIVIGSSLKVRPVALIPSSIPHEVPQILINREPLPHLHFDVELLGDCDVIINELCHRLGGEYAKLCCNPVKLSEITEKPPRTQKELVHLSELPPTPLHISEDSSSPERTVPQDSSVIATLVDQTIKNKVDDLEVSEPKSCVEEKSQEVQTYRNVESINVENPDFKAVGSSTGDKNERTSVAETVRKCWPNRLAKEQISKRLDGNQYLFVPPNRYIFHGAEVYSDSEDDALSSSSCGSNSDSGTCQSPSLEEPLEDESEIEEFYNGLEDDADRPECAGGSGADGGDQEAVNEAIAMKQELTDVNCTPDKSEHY
Briefly: co-IP; brain tissue from lesioned cortices 3 days after TBI, incubated with 1 ug antibody for 2 h at 4 °C, then protein A/G agarose beads overnight, washed three times with lysis buffer, western blot; groups: sham, TBI, TBI + ω-3 PUFA. (Immunoblotting shows a protein as a band on a membrane.)

Take “High mobile group box 1 (HMGB1) (from UniProt P63159 1-215)”: the binding entry is given as “binds”.
